Assay results reported in PMC5637157.
Results are given in words; binding and its absence hold for the method and conditions named. Binding seen in cells or lysates may run through a third protein. Some entries that bind do so weakly or less than the wild type.

By UniProt entry, the sequences of proteins in these tests, tags left out.
UniProt P38606: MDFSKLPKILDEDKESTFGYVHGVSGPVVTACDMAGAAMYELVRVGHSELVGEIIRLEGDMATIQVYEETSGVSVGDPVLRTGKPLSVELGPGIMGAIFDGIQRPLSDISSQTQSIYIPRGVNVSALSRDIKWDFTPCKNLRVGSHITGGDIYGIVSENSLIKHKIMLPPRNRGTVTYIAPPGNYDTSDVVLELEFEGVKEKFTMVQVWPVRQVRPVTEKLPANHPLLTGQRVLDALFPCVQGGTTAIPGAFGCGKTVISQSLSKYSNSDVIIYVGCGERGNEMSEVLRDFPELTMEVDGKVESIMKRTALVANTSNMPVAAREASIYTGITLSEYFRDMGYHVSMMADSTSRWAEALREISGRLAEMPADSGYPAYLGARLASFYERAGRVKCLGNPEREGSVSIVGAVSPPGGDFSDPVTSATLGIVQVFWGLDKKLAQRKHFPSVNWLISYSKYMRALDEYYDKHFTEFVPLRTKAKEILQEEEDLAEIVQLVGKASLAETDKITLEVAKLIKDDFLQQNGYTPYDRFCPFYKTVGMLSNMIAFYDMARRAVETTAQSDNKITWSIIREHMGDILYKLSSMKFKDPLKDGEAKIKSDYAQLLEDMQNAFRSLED

Target: V-ATPase catalytic subunit A (ATP6V1A) (human (endogenous in HEK293)) (UniProt P38606)
Experiment: co-IP; endogenous ATP6V1A immunoprecipitated from lysates of HEK293 cells overexpressing murine Cish or CishΔSOCS box; cells treated with proteasome inhibitor MG132 for 5 hr before lysis; Cish detected by western blot; empty vector (pcDNA) as negative control

B1: murine Cish (cytokine-inducible SH2-containing protein), full sequence (protein, UniProt Q62225 1-257)
chain: MVLCVQGSCPLLAVEQIGRRPLWAQSLELPGPAMQPLPTGAFPEEVTEETPVQAENEPKVLDPEGDLLCIAKTFSYLRESGWYWGSITASEARQHLQKMPEGTFLVRDSTHPSYLFTLSVKTTRGPTNVRIEYADSSFRLDSNCLSRPRILAFPDVVSLVQHYVASCAADTRSDSPDPAPTPALPMSKQDAPSDSVLPIPVATAVHLKLVQPFVRRSSARSLQHLCRLVINRLVADVDCLPLPRRMADYLRQYPFQL
With B1 the binding was “binds”.
